Experimental data as given in patent US6800674B2, “Anthraquinone compound and water-based ink-jet recording ink containing the compound” (Mitsui Chemicals, Inc., priority 2000, dated 2004).

Experiment: Evaluation of an image (blotting on plain paper)
Design: key: ⊚: Blotting is not observed.; ◯: Blotting is observed without any influence on an image.; X: Blotting is notably observed
Details: aqueous ink
[1] = ink production process Example 1
[2] = ink production process Example 2

Row | SMILES | B (Evaluation of an image, blotting) [1] | B (Evaluation of an image, blotting) [2]
1 | CCCCCCCCN(CCCCCCCC)c1cccc(Oc2cc(O)c3c(c2N)C(=O)c2ccccc2C3=O)c1 [Coloring matter No. 1] | ⊚ | 
2 | O=C1c2ccccc2C(=O)c2c1ccc(O)c2O [Comparative Example 1, reference compound] | X | 
3 | Nc1ccccc1Oc1cc(O)c2c(c1N)C(=O)c1ccccc1C2=O [compound 4] | ⊚ | ⊚
4 | CN(C)c1cccc(Oc2cc(O)c3c(c2N)C(=O)c2ccccc2C3=O)c1 [compound 5] | ⊚ | ⊚
5 | CCNc1cccc(Oc2cc(O)c3c(c2N)C(=O)c2ccccc2C3=O)c1 [compound 6] | ⊚ | ⊚
6 | CCN(CC)c1cccc(Oc2cc(O)c3c(c2N)C(=O)c2ccccc2C3=O)c1 [compound 7] | ⊚ | ⊚
7 | CCCN(CCC)c1cccc(Oc2cc(O)c3c(c2N)C(=O)c2ccccc2C3=O)c1 [compound 8] | ⊚ | ⊚
8 | CCCCN(CCCC)c1cccc(Oc2cc(O)c3c(c2N)C(=O)c2ccccc2C3=O)c1 [compound 9] | ⊚ | ⊚
9 | CCCCCCN(CCCCCC)c1cccc(Oc2cc(O)c3c(c2N)C(=O)c2ccccc2C3=O)c1 [compound 10] | ⊚ | ⊚
10 | CCCC(C)N(c1cccc(Oc2cc(O)c3c(c2N)C(=O)c2ccccc2C3=O)c1)C(C)CCC (stereo not shown) [compound 11] | ⊚ | ⊚
11 | Nc1c(Oc2ccc(C(c3ccccc3)c3ccccc3)cc2)cc(O)c2c1C(=O)c1ccccc1C2=O [compound 12] | ⊚ | ⊚
12 | CCN(CC)c1cccc(Oc2cc(O)c3c(c2N)C(=O)c2cc(C)ccc2C3=O)c1 [compound 13] | ⊚ | ⊚
13 | CCCCN(CCCC)c1cccc(Oc2cc(O)c3c(c2N)C(=O)c2ccc(CC)cc2C3=O)c1 [compound 14] | ⊚ | ⊚
14 | CCc1ccc2c(c1)C(=O)c1c(O)cc(Oc3cccc(N(CC)CC)c3)c(N)c1C2=O [compound 15] | ⊚ | ⊚
15 | CCN(CC)c1cccc(Oc2cc(O)c3c(c2N)C(=O)c2ccc(OC)cc2C3=O)c1 [compound 16] | ⊚ | ⊚
16 | CCCCCCN(CCCCCC)c1cccc(Oc2cc(O)c3c(c2N)C(=O)c2cccc(C)c2C3=O)c1 [compound 18] | ⊚ | ⊚
17 | CCCCC(CC)CC(=O)Nc1ccc(O)cc1Sc1cc(O)c2c(c1N)C(=O)c1ccccc1C2=O (stereo not shown) [compound 19] | ◯ | 
18 | CCCCCCCCOC(=O)CSc1cc(O)c2c(c1N)C(=O)c1ccccc1C2=O [compound 20] | ◯ | 
19 | CCCCCCCCSc1cc(O)c2c(c1N)C(=O)c1ccccc1C2=O [compound 21] | ◯ | 

Row | SMILES | B (Evaluation of an image, blotting) [1] | B (Evaluation of an image, blotting) [2]
20 | Nc1ccccc1Sc1cc(O)c2c(c1N)C(=O)c1ccccc1C2=O [compound 22] | ◯ | 
21 | Nc1c(Oc2ccccc2)cc(O)c2c1C(=O)c1ccccc1C2=O [compound 23] | ◯ | 
22 | Cc1cccc(Oc2cc(O)c3c(c2N)C(=O)c2ccccc2C3=O)c1 [compound 24] | ◯ | 
23 | Cc1ccc(CCCOc2cc(O)c3c(c2N)C(=O)c2ccccc2C3=O)cc1 [compound 25] | ◯ | 
24 | CCCCC(CC)COC(=O)CSc1cccc(Oc2cc(O)c3c(c2N)C(=O)c2ccccc2C3=O)c1 (stereo not shown) [compound 26] | ◯ | 
25 | CCCCCCCCCCCCCCCCCCOC(=O)CSc1cc(O)c2c(c1N)C(=O)c1ccccc1C2=O [compound 27] | ◯ | 
26 | CCCCC(CC)COC(=O)CSc1ccccc1Oc1cc(O)c2c(c1N)C(=O)c1ccccc1C2=O (stereo not shown) [compound 28] | ◯ | 
27 | CCCCC(CC)COC(=O)CCSc1cc(O)c2c(c1N)C(=O)c1ccccc1C2=O (stereo not shown) [compound 29] | ◯ | 
28 | CCCCC(CC)COC(=O)CSc1cc(O)c2c(c1N)C(=O)c1ccccc1C2=O (stereo not shown) [compound 30] | ◯ | 
29 | Nc1c(SCCOCCSc2cc(O)c3c(c2N)C(=O)c2ccccc2C3=O)cc(O)c2c1C(=O)c1ccccc1C2=O [compound 31] | ◯ | 
30 | CCCCOC(=O)CSc1cc(O)c2c(c1N)C(=O)c1ccccc1C2=O [compound 32] | ◯ | 
31 | CCCCC(CC)C(=O)Nc1ccccc1Oc1cc(O)c2c(c1N)C(=O)c1ccccc1C2=O (stereo not shown) [compound 33] | ⊚ | 
32 | CCCCC(CC)C(=O)Nc1cccc(Oc2cc(O)c3c(c2N)C(=O)c2ccccc2C3=O)c1 (stereo not shown) [compound 34] | ⊚ | 
33 | Nc1c(Oc2ccccc2NC(=O)c2ccccc2)cc(O)c2c1C(=O)c1ccccc1C2=O [compound 35] | ⊚ | 
34 | CCCCN(CCCC)c1cccc(CCOc2cc(O)c3c(c2N)C(=O)c2ccccc2C3=O)c1 [compound 36] | ⊚ | 
35 | Nc1c(Oc2cccc(C(F)(F)F)c2)cc(O)c2c1C(=O)c1ccccc1C2=O [compound 37] | ◯ | 
36 | CCCCCCCCCc1ccc(Oc2cc(O)c3c(c2N)C(=O)c2ccccc2C3=O)cc1 [compound 38] | ◯ | 
37 | CCCCC(CC)C(=O)Oc1ccc(Oc2cc(O)c3c(c2N)C(=O)c2ccccc2C3=O)cc1 (stereo not shown) [compound 39] | ◯ | 
38 | CCCCC(CC)COC(=O)CSc1ccc(Oc2cc(O)c3c(c2N)C(=O)c2ccccc2C3=O)cc1 (stereo not shown) [compound 40] | ◯ | 
